Here are results for four molecules from the supplement of paper PMC4635364.

Test [1] concerns ReNCell VM. The experiment in a line: neuronal differentiation score (DCX+ cell fraction vs untreated, manual image score) (score (-3 to 3)); higher = more neuronal differentiation. To be noted: 2 uM, 2 weeks.
Test [2] deals with ReNCell VM. The experiment in a line: dopaminergic neuron differentiation score (TH+ cell fraction vs untreated, manual image score) (score (0 to 3)); higher = more TH+ dopaminergic neuron differentiation. To be noted: 2 uM, 4 weeks, BDNF 10 ng/ml + GDNF 10 ng/ml.

This is one part of the list. Repeats in this data set agree poorly, so a single value says little.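 ReNCell VM, a human fetal ventral-midbrain neural progenitor line, was differentiated without mitogens. Blinded raters scored images stained for doublecortin (early neurons) or tyrosine hydroxylase (dopaminergic neurons) against untreated wells (0 = no change). Scores were averaged across repeats and both raters, and compounds averaging 2 or more were selected as hits for retesting.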

With `O=C(O)c1cccc(C(=O)O)n1` [2,6-pyridinedicarboxylic acid], the neuronal differentiation score in test [1] (library: Natural) is inactive: 1. Also, in test [2] (library: Natural), the “dopaminergic neuron differentiation score” value was inactive: 0.
As for `CC(=O)O[C@H]1C[C@@]2(C)[C@@H](C[C@@H](O)[C@H]3[C@@]4(C)CC[C@@H](O)[C@@H](C)[C@@H]4CC[C@@]32C)/C1=C(\CCC=C(C)C)C(=O)O` [fusidic acid], the neuronal differentiation score in test [1] (library: Natural) is inactive: 0. Moreover, in test [2] (library: Natural), the “dopaminergic neuron differentiation score” value was inactive: 0.
Take `CC1(C)[C@@H](O[C@H]2O[C@H](C(=O)O)[C@@H](O)[C@H](O)[C@H]2O[C@@H]2O[C@H](C(=O)O)[C@@H](O)[C@H](O)[C@H]2O)CC[C@]2(C)[C@H]3C(=O)C=C4[C@@H]5C[C@@](C)(C(=O)O)CC[C@]5(C)CC[C@@]4(C)[C@]3(C)CC[C@@H]12` [Glycyrrhizic acid]: in test [1] (library: Phytochemical), the neuronal differentiation score is inactive: 0. For the same molecule, in test [2] (library: Phytochemical), the “dopaminergic neuron differentiation score” value is inactive: 0.
As to `Cc1cccc(Nc2ccccc2C(=O)O)c1C` [Mefenamic acid], in test [1] (library: Prestwick), the neuronal differentiation score was inactive: 0. Also, the “dopaminergic neuron differentiation score” value in test [2] (library: Prestwick) was inactive: 0.
